Data on one molecule can be found in PMC3185932, “A truncated form of CD9-partner 1 (CD9P-1), GS-168AT2, potently inhibits in vivo tumour-induced angiogenesis and tumour growth” (British Journal of Cancer, 2011).

Chains of the proteins cited; added tags and fusions are not shown.
UniProt P05556: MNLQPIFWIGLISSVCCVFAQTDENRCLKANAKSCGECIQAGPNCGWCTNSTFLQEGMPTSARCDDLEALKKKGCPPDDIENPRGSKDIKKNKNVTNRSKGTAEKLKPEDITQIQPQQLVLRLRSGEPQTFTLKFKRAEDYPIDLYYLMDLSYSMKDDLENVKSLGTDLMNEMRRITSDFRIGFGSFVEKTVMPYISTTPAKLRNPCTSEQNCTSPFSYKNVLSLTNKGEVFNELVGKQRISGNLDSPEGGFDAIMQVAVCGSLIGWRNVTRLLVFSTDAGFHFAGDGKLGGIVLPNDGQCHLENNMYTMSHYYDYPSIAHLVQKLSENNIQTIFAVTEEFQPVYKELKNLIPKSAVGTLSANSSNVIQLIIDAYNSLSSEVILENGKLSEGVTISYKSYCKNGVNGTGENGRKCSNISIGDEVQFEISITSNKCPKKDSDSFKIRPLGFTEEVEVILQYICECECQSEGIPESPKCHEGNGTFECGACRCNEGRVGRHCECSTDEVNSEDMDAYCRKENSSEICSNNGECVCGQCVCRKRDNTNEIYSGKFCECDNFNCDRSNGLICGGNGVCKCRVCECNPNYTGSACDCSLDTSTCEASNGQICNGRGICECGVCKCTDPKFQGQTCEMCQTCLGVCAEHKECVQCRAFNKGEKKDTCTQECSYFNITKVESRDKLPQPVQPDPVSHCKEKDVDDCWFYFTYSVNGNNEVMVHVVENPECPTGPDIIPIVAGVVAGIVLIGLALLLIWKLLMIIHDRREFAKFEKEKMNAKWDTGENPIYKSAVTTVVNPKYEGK

No constants are given. Whether binding was seen depends on the method and setting. In cells and extracts the contact can be indirect. Some entries that bind do so weakly or less than the wild type.

Assay in all cases: co-IP; hEC incubated with purified GS-168AT2 (40 μg ml^–1) or vehicle for 2 h, washed, lysed in 1% Brij 97 lysis buffer (10 mM Tris pH 7.5, 150 mM NaCl, 1 mM CaCl2, 1 mM MgCl2); CD9, CD81, CD151 or integrin β1 immunoprecipitated with their mAbs and protein G agarose at 4 °C; blot with 229T mAb against GS-168AT2; only the binder purified
Assay [1] has as its target T1, CD151 (human (endogenous in hEC)) (UniProt P48509).
T1 sequence: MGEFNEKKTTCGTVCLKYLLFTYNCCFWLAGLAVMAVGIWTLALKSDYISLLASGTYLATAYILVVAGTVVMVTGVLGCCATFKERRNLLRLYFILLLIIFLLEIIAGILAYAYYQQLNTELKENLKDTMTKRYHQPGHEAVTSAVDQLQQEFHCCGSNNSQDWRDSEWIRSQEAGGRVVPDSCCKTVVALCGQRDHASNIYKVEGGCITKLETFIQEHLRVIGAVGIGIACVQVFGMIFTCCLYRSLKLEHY

Assay [2] concerns the target T2, CD81 (human (endogenous in hEC)) (UniProt P60033).
T2 sequence: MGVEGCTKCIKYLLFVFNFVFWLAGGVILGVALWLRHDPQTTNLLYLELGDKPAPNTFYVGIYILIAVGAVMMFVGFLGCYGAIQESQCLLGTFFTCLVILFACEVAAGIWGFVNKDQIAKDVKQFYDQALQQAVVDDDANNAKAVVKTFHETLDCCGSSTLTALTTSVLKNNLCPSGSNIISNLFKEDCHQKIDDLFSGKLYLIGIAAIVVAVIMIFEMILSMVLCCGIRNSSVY

Assay [3] has as its target β1 integrins (human (endogenous in hEC)) (UniProt P05556).

B1: GS-168AT2, truncated form of CD9 partner-1 (CD9P-1), amino acid 724-832 (domain or fragment, human, UniProt Q9P2B2 724-832, looked up)
chain: DMAFDVSWFAVHSFGLDKAPVLLSSLDRKGIVTTSRRDWKSDLSLERVSVLEFLLQVHGSEDQDFGNYYCSVTPWVKSPTGSWQKEAEIHSKPVFITVKMDVLNAFKYP
notes: CD9 partner-1 (CD9P-1/FPRP/EWI-F), human, amino acid 724-832: the unglycosylated extracellular portion next to the transmembrane domain; cDNA from RNA of human endothelial cells; no removal of the tag is described. pET-30 EK/LIC is known to add His and S tags at the N-terminus (surmised); also called truncated CD9P-1; source: E. coli BL21(DE3)pLys, purified from the insoluble fraction in urea …
For the molecule B1, the binding entry in assay [1] is “binds”; in assay [2] it was “binds weakly”; in assay [3], “no binding (tested: 40 μg ml^–1)”.
